The values that follow come from article PMC11229371, “The activity of CobB1 protein deacetylase contributes to nucleoid compaction in Streptomyces venezuelae spores by increasing HupS affinity for DNA” (Nucleic Acids Research, 2024).

Broadly, the Kd is the equilibrium constant for the complex coming apart.

For series [1], the target named is T1, His-HupS acetylated in vitro (+AcP) (Streptomyces venezuelae) (UniProt F2R5C9).
T1 sequence: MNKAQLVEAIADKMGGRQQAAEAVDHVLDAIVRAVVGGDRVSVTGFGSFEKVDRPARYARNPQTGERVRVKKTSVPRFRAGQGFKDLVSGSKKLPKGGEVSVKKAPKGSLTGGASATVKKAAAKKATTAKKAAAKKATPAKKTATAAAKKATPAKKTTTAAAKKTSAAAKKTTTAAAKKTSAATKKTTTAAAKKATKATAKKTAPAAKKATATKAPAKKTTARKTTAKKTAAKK
In words: BLI. As to conditions: 1 mM Mg2+, lysine-acetylated; BLI: 100 mM Tris-HCl pH 8.0, 200 mM NaCl, 1 mM MgCl2, 0.005% Tween-20, 0.1 mg/ml BSA, 30 C; recombinant protein; residues 1-234; protein details: N-terminal His (pET-28a); label: 5' biotin, immobilized on streptavidin; single-stranded DNA.

In series [2] the target is T2, His-HupS (nonacetylated, -AcP) (Streptomyces venezuelae) (UniProt F2R5C9).
T2 sequence: T1 sequence
Nature of the series: BLI. The following applies: 1 mM Mg2+; BLI: 100 mM Tris-HCl pH 8.0, 200 mM NaCl, 1 mM MgCl2, 0.005% Tween-20, 0.1 mg/ml BSA, 30 C; recombinant protein; residues 1-234; protein details: N-terminal His (pET-28a); label: 5' biotin, immobilized on streptavidin; single-stranded DNA.

For at least one entry, the source does not settle the construct or the ends of the probe.

As to “CTCACGCATGCCGGAGTGTCGCGGCAGTTCGGCATCAGCGGCTGTGCATCGTGTTTCACGTGAAACGTCGCTCACTGCTGCACGGCATCATCAGCCGCGGCCGCGCCGCGGCCGACC [Btn-parS-oligo]”, the Kd in series [1] turned out to be 17.6 nM; in series [2] it was 10.6 nM.
